{
  "source": "PubChem BioAssay AID1347423",
  "about": "(Functional Genomics Laboratory (NCATS/FGL), 2020)",
  "note": "The whole screen tested about 52,000 sequences, of which about 210 (0.4%) were called active.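 The calls were made as follows: active = gene whose silencing raises cell survival under the drug, median off-target-corrected z-score across its silencing RNAs 2 or more; inactive = the rest.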 This is one part of the list.",
  "data": [
    {"test": "Resistance to Poly (ADP-Ribose) Polymerase inhibitor: Gene Identification via Genome-wide siRNA Screen", "conditions": "mouse BRCA2 R2336H ES cells, olaparib, CellTiter-Glo viability; stronger effect = higher value", "summary_of_the_method": "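Genome-wide siRNA screen (3 siRNAs/gene, 20 nM) in mouse ES cells carrying hypomorphic BRCA2 R2336H; olaparib 500 nM added 48 h post-transfection, CellTiter-Glo viability 72 h later. Normalized to plate-median negative control; MAD z-scores, gene median, seed-adjusted.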", "values": [
      {"sequence": "GUGCCAGUUGUGACAAUAUTT against 4930481M05", "z-score": "inactive: 1.45"},
      {"sequence": "GGAAAAAAUGAACAAGACATT against 0610009O20Rik", "z-score": "inactive: 0.468"},
      {"sequence": "GCCAUAUGUCAAGCCUGACTT against Scrn3", "z-score": "inactive: -1.14"},
      {"sequence": "GGACUGUGUCCUUCUAUGATT against Oas1f", "z-score": "inactive: 0.8"},
      {"sequence": "GGUUACAGAGCUACAUCGATT against A930017M01Rik", "z-score": "inactive: 0.758"},
      {"sequence": "GGACUCAAUAAGAACCUCGTT against Papss1", "z-score": "inactive: 0.267"},
      {"sequence": "GCUAAGGCCUUUAUUCGCUTT against Tlr11", "z-score": "inactive: 0.0407"},
      {"sequence": "GGAGAACAAACUGAGGCACTT against Bzrpl1", "z-score": "inactive: 0.00433"},
      {"sequence": "CCGUGGUUCUCUCUUAUAUTT against Olfr1106", "z-score": "inactive: 0.0862"},
      {"sequence": "GCCGAACUUCGGAAUUCUGTT against Nf1", "z-score": "inactive: -0.586"},
      {"sequence": "GGAGAUUUCCCGACUUAACTT against Tnip2", "z-score": "inactive: 0.611"},
      {"sequence": "GGUUCAGAAGUUUGUGAUGTT against V1rc16", "z-score": "inactive: 0.306"},
      {"sequence": "GGAUAUUCAAAUGGGUGCCTT against Bcl7b", "z-score": "inactive: -0.189"},
      {"sequence": "CCUUCAUUAACUGUGCCUATT against Slc7a7", "z-score": "inactive: -0.948"},
      {"sequence": "GGAAGGAGGGUAUGUGGUUTT against Lgals9", "z-score": "inactive: -0.503"},
      {"sequence": "GCAUGUUUUCCACAGCGAUTT against V1rb9", "z-score": "inactive: 0.966"},
      {"sequence": "GGAAACCAGAGAACAAAACTT against Pmp22", "z-score": "inactive: 0.0812"},
      {"sequence": "GCAGAUACCAUGAUACAGUTT against Usp49", "z-score": "inactive: -0.0899"},
      {"sequence": "CCUGUCAUCACACUCGAGGTT against Coro6", "z-score": "inactive: -0.632"},
      {"sequence": "GGAAGACAUUGUCUUGUUUTT against C330043M08", "z-score": "inactive: -0.171"},
      {"sequence": "GGUGUCAUUAGCUUUACUUTT against Arcp", "z-score": "inactive: 1.95"},
      {"sequence": "GCUGACCUUAAAUCCUGACTT against Pgpep1", "z-score": "inactive: 0.496"},
      {"sequence": "CCAUCCUCCUACUCGUUAGTT against V1rf5", "z-score": "inactive: 0.725"},
      {"sequence": "CCCAAAACGGAAUAAGCUATT against Dusp8", "z-score": "inactive: 0.475"},
      {"sequence": "GGCAGCUCUUACAACAGUATT against Htr3b", "z-score": "inactive: 2.21"},
      {"sequence": "GGAGGACUUAGAGAGUAUGTT against Ctdp1", "z-score": "inactive: 0.246"},
      {"sequence": "GGAGAUGGAAGUAAUUUUUTT against Plk4", "z-score": "inactive: -0.148"},
      {"sequence": "GACAUAAGCGGUAACAUCATT against Gltp", "z-score": "inactive: 3.45"},
      {"sequence": "GGCCCUCUGAGAUUAAUGUTT against AY078069", "z-score": "inactive: 0.56"}
    ]}
  ]
}
